Test results reported in patent publication US20230364104A1, “PHARMACEUTICAL COMBINATION FOR THE TREATMENT OF HUMAN HYPOCHOLINERGIC DISORDERS” (priority 2020, published 2023).

Details: donepezil alone, single increasing oral doses from 5 mg in 5 mg increments, healthy volunteers

COc1cc2c(cc1OC)C(=O)C(CC1CCN(Cc3ccccc3)CC1)C2 (racemic) [donepezil, (RS)-2-[(1-benzyl-4-piperidyl)methyl]-5,6-dimethoxy-2,3-dihydroinden-1-one]
dose limiting toxicity: mainly vomiting
